In publication PMC8854993, “Acetylation at Lysine 86 of Escherichia coli HUβ Modulates the DNA-Binding Capability of the Protein” (Frontiers in Microbiology, 2021):
For at least one entry, the source does not settle the construct or the ends of the probe. For some assays here: The comparison behind a weaker result is the experiment's own reference, which may not be listed here. For some assays here: At least one verdict rests on a figure or table, not on a statement of the authors.

Amino acid sequences for entries named in this document (tags omitted). A change or cut given only in a name is not applied to a line headed by its entry.
UniProt P0ACF4: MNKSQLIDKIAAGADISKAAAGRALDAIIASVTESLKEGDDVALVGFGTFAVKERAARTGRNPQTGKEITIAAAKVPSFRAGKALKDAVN

Columns and labels:
Assay in all cases: EMSA
[1] = test system: HUα + HUβ(K67ac); settings: heterodimer, no significant change versus HUαβ (p > 0.15); 2-nt gap in bottom strand; 30 mM Tris pH 7.5, 100 mM NaCl, 0.02% Tween20, 0.5 mg/ml BSA; 30-bp DNA 1 µM, 18°C 10 min, 10% PAGE in TBE; long DNA 250 ng in 15 µL, 37°C 1 h, 0.5% agarose in TAE; recombinant protein; protein details: C-terminal 6xHis,C-terminal 6xHis
[2] = test system: HUα + HUβ(K86ac); settings: heterodimer, 30 mM Tris pH 7.5, 100 mM NaCl, 0.02% Tween20, 0.5 mg/ml BSA, 30-bp DNA 1 µM, 18°C 10 min, 10% PAGE in TBE, long DNA 250 ng in 15 µL, 37°C 1 h, 0.5% agarose in TAE, recombinant protein, protein details: C-terminal 6xHis,C-terminal 6xHis
[3] = biological target: HUβ(K67ac) (Escherichia coli BL21(DE3)) (UniProt P0ACF4); settings: homodimer, profile very similar to HUβ2; 2-nt gap in bottom strand; 30 mM Tris pH 7.5, 100 mM NaCl, 0.02% Tween20, 0.5 mg/ml BSA; 30-bp DNA 1 µM, 18°C 10 min, 10% PAGE in TBE; long DNA 250 ng in 15 µL, 37°C 1 h, 0.5% agarose in TAE; recombinant protein; residues 1-90; protein details: C-terminal 6xHis
[4] = biological target: HUβ(K86ac) (Escherichia coli BL21(DE3)) (UniProt P0ACF4); settings: homodimer, lower affinity than HUβ2; nick in bottom strand; 30 mM Tris pH 7.5, 100 mM NaCl, 0.02% Tween20, 0.5 mg/ml BSA; 30-bp DNA 1 µM, 18°C 10 min, 10% PAGE in TBE; long DNA 250 ng in 15 µL, 37°C 1 h, 0.5% agarose in TAE; recombinant protein; residues 1-90; protein details: C-terminal 6xHis

Sequence	binding result [1]	binding result ([2]; no significant change versus HUαβ (p > 0.15), 2-nt gap in bottom strand)	binding result [3]	binding result ([2]; no significant difference from HUαβ, nick in bottom strand)	binding result [4]
CCAACTTCCCTAACCCAGCTGCGATCCGTA / TACGGATCGCAGC / GGTTAGGGAAGTTGG [30-bp duplex with 2-nt gap]	binds	binds	binds		
CCAACTTCCCTAACCCAGCTGCGATCCGTA / TACGGATCGCAGC / TGGGTTAGGGAAGTTGG [30-bp duplex with nick]				binds	binds more weakly
